Experimental data reported in patent publication EP4509142A1, “FGFR4 AS TARGET IN CANCER TREATMENT” (Ona Therapeutics S.L., priority 2023, dated 2025).
At least one structure is not confirmed: it was looked up by name or label, or the drawing left a doubt.

Legend:
MCF7-PR = assay: Mammary fat pad xenograft tumor growth under oral palbociclib; format: in vivo, female Balb/c nude mice; conditions: palbociclib 50mg/kg orally 5 days a week
MCF7 control = assay: as above; format: in vivo, female Balb/c nude mice; conditions: palbociclib 50mg/kg orally 5 days a week; vehicle VS palbociclib p=0.018

CC(=O)c1c(C)c2cnc(Nc3ccc(N4CCNCC4)cn3)nc2n(C2CCCC2)c1=O [palbociclib]
tumor growth in FGFR4-depleted MCF7-PR (MCF7-PR; MCF7-PR shFGFR4#1 cells): magnitude of the effect is amplified | tumor growth (MCF7-PR; vehicle VS palbociclib p=0.907): grew a lesion irrespectively of CDK4/6i treatment | tumor growth (MCF7 control): restraining tumor growth
